# Test results taken from article PMC3422239.
# Amino acid sequences for entries named in this document (tags omitted).
# UniProt P31946: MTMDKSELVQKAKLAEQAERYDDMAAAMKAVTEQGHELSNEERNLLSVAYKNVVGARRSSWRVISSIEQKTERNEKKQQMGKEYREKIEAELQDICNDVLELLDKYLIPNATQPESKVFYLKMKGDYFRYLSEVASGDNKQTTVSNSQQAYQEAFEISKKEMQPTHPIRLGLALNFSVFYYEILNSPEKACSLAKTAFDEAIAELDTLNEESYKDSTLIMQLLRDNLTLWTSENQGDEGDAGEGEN
# UniProt P62258: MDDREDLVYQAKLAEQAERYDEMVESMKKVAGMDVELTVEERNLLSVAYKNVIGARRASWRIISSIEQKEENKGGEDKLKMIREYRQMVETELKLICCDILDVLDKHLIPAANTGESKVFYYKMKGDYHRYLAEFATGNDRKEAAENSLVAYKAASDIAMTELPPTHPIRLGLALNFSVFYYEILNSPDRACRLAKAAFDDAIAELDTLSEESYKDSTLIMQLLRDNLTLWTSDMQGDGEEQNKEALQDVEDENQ
# These are yes or no findings as the source states them, for the method shown. In cells and extracts the contact can be indirect. Some binding calls cover weakened binding; strength is not graded here. Where a sequence is shown, tags or fusion partners need not be part of it.
# How the values were obtained:
# GST-14-3-3β [1] = molecular target: GST-14-3-3β (UniProt P31946); assay: pull-down; 2 µg GST-14-3-3β or ε on glutathione Sepharose 4B incubated 2 hours at 4°C in lysis buffer with lysates of transfected HEK293 cells; blot with GFP and GST antibodies; cells IGF-1 or wortmannin before IGF-1; only the target purified
# GST-14-3-3ε [2] = molecular target: GST-14-3-3ε (UniProt P62258); assay: as above
# GST-14-3-3β [3] = molecular target: GST-14-3-3β (UniProt P31946); assay: pull-down; data not shown: GST pulldown of the single S556A mutant with GST-14-3-3; only the target purified
# GST-14-3-3ε [4] = molecular target: GST-14-3-3ε (UniProt P62258); assay: as above
binding (GST-14-3-3β [1]),binding (GST-14-3-3ε [2]),binding (GST-14-3-3β [3]),binding (GST-14-3-3ε [4]),Binder
binds,binds,,,"GFP-IRS2-S573A (protein, UniProt P81122 1-1321) MASAPLPGPPASAGGDGPNLNNNNNNNNHSVRKCGYLRKQKHGHKRFFVLRGPGTGGDEASAAGGSPPQPPRLEYYESEKKWRSKAGAPKRVIALDCCLNINKRADAKHKYLIALYTKDEYFAVAAENEQEQEGWYRALTDLVSEGRSGEGGSGTTGGSCSASLPGVLGGSAGAAGCDDNYGLVTPATAVYREVWQVNLKPKGLGQSKNLTGVYRLCLSARTIGFVKLNCEQPSVTLQLMNIRRCGHSDSFFFIEVGRSAVTGPGELWMQADDSVVAQNIHETILEAMKALKELFEFRPRSKSQSSGSSATHPISVPGARRHHHLVNLPPSQTGLVRRSRTDSLAATPPAAKCTSCRVRTASEGDGGAAGGAGTAGGRPMSVAGSPLSPGPVRAPLSRSHTLSAGCGGRPSKVTLAPAGGALQHSRSMSMPVAHSPPAATSPGSLSSSSGHGSGSYPLPPGSHPHLPHPLHHPQGQRPSSGSASASGSPSDPGFMSLDEYGSSPGDLRAFSSHRSNTPESIAETPPARDGSGGELYGYMSMDRPLSHCGRPYRRVSGDGAQDLDRGLRKRTYALTTPARQRQVPQPSSASLDEYTLMRATFSGSSGRLCPSFPASSPKVAYNPYPEDYGDIEIGSHKSSSSNLGADDGYMPMTPGAALRSGGPNSCKSDDYMPMSPTSVSAPKQILQPRLAAALPPSGAAVPAPPSGVGRTFPVNGGGYKASSPAESSPEDSGYMRMWCGSKLSMENPDPKLLPNGDYLNMSPSEAGTAGTPPDFSAALRGGSEGLKGIPGHCYSSLPRSYKAPCSCSGDNDQYVLMSSPVGRILEEERLEPQATPGAGTFGAAGGSHTQPHHSAVPSSMRPSAIGGRPEGFLGQRCRAVRPTRLSLEGLQTLPSMQEYPLPTEPKSPGEYINIDFGEAGTRLSPPAPPLLASAASSSSLLSASSPASSLGSGTPGTSSDSRQRSPLSDYMNLDFSSPKSPKPSTRSGDTVGSMDGLLSPEASSPYPPLPPRPSTSPSSLQQPLPPAPGDLYRLPPASAATSQGPTAGSSMSSEPGDNGDYTEMAFGVAATPPQPIVAPPKPEGARVASPTSGLKRLSLMDQVSGVEAFLQVSQPPDPHRGAKVIRADPQGGRRRHSSETFSSTTTVTPVSPSFAHNSKRHNSASVENVSLRKSSEGSSTLGGGDEPPTSPGQAQPLVAVPPVPQARPWNPGQPGALIGCPGGSSSPMRRETSVGFQNGLNYIAIDVRGEQGSLAQSQPQPGDKNSWSRTRSLGGLLGTVGGSGASGVCGGPGTGALPSASTYASIDFLSHHLKEATVVKE"
,,binds,binds,"GFP-IRS2-S556A (protein, UniProt P81122 1-1321) MASAPLPGPPASAGGDGPNLNNNNNNNNHSVRKCGYLRKQKHGHKRFFVLRGPGTGGDEASAAGGSPPQPPRLEYYESEKKWRSKAGAPKRVIALDCCLNINKRADAKHKYLIALYTKDEYFAVAAENEQEQEGWYRALTDLVSEGRSGEGGSGTTGGSCSASLPGVLGGSAGAAGCDDNYGLVTPATAVYREVWQVNLKPKGLGQSKNLTGVYRLCLSARTIGFVKLNCEQPSVTLQLMNIRRCGHSDSFFFIEVGRSAVTGPGELWMQADDSVVAQNIHETILEAMKALKELFEFRPRSKSQSSGSSATHPISVPGARRHHHLVNLPPSQTGLVRRSRTDSLAATPPAAKCTSCRVRTASEGDGGAAGGAGTAGGRPMSVAGSPLSPGPVRAPLSRSHTLSAGCGGRPSKVTLAPAGGALQHSRSMSMPVAHSPPAATSPGSLSSSSGHGSGSYPLPPGSHPHLPHPLHHPQGQRPSSGSASASGSPSDPGFMSLDEYGSSPGDLRAFSSHRSNTPESIAETPPARDGSGGELYGYMSMDRPLSHCGRPYRRVAGDGAQDLDRGLRKRTYSLTTPARQRQVPQPSSASLDEYTLMRATFSGSSGRLCPSFPASSPKVAYNPYPEDYGDIEIGSHKSSSSNLGADDGYMPMTPGAALRSGGPNSCKSDDYMPMSPTSVSAPKQILQPRLAAALPPSGAAVPAPPSGVGRTFPVNGGGYKASSPAESSPEDSGYMRMWCGSKLSMENPDPKLLPNGDYLNMSPSEAGTAGTPPDFSAALRGGSEGLKGIPGHCYSSLPRSYKAPCSCSGDNDQYVLMSSPVGRILEEERLEPQATPGAGTFGAAGGSHTQPHHSAVPSSMRPSAIGGRPEGFLGQRCRAVRPTRLSLEGLQTLPSMQEYPLPTEPKSPGEYINIDFGEAGTRLSPPAPPLLASAASSSSLLSASSPASSLGSGTPGTSSDSRQRSPLSDYMNLDFSSPKSPKPSTRSGDTVGSMDGLLSPEASSPYPPLPPRPSTSPSSLQQPLPPAPGDLYRLPPASAATSQGPTAGSSMSSEPGDNGDYTEMAFGVAATPPQPIVAPPKPEGARVASPTSGLKRLSLMDQVSGVEAFLQVSQPPDPHRGAKVIRADPQGGRRRHSSETFSSTTTVTPVSPSFAHNSKRHNSASVENVSLRKSSEGSSTLGGGDEPPTSPGQAQPLVAVPPVPQARPWNPGQPGALIGCPGGSSSPMRRETSVGFQNGLNYIAIDVRGEQGSLAQSQPQPGDKNSWSRTRSLGGLLGTVGGSGASGVCGGPGTGALPSASTYASIDFLSHHLKEATVVKE"
binds,binds,,,"GFP-IRS2-S556A/S573A (protein, UniProt P81122 1-1321) MASAPLPGPPASAGGDGPNLNNNNNNNNHSVRKCGYLRKQKHGHKRFFVLRGPGTGGDEASAAGGSPPQPPRLEYYESEKKWRSKAGAPKRVIALDCCLNINKRADAKHKYLIALYTKDEYFAVAAENEQEQEGWYRALTDLVSEGRSGEGGSGTTGGSCSASLPGVLGGSAGAAGCDDNYGLVTPATAVYREVWQVNLKPKGLGQSKNLTGVYRLCLSARTIGFVKLNCEQPSVTLQLMNIRRCGHSDSFFFIEVGRSAVTGPGELWMQADDSVVAQNIHETILEAMKALKELFEFRPRSKSQSSGSSATHPISVPGARRHHHLVNLPPSQTGLVRRSRTDSLAATPPAAKCTSCRVRTASEGDGGAAGGAGTAGGRPMSVAGSPLSPGPVRAPLSRSHTLSAGCGGRPSKVTLAPAGGALQHSRSMSMPVAHSPPAATSPGSLSSSSGHGSGSYPLPPGSHPHLPHPLHHPQGQRPSSGSASASGSPSDPGFMSLDEYGSSPGDLRAFSSHRSNTPESIAETPPARDGSGGELYGYMSMDRPLSHCGRPYRRVAGDGAQDLDRGLRKRTYALTTPARQRQVPQPSSASLDEYTLMRATFSGSSGRLCPSFPASSPKVAYNPYPEDYGDIEIGSHKSSSSNLGADDGYMPMTPGAALRSGGPNSCKSDDYMPMSPTSVSAPKQILQPRLAAALPPSGAAVPAPPSGVGRTFPVNGGGYKASSPAESSPEDSGYMRMWCGSKLSMENPDPKLLPNGDYLNMSPSEAGTAGTPPDFSAALRGGSEGLKGIPGHCYSSLPRSYKAPCSCSGDNDQYVLMSSPVGRILEEERLEPQATPGAGTFGAAGGSHTQPHHSAVPSSMRPSAIGGRPEGFLGQRCRAVRPTRLSLEGLQTLPSMQEYPLPTEPKSPGEYINIDFGEAGTRLSPPAPPLLASAASSSSLLSASSPASSLGSGTPGTSSDSRQRSPLSDYMNLDFSSPKSPKPSTRSGDTVGSMDGLLSPEASSPYPPLPPRPSTSPSSLQQPLPPAPGDLYRLPPASAATSQGPTAGSSMSSEPGDNGDYTEMAFGVAATPPQPIVAPPKPEGARVASPTSGLKRLSLMDQVSGVEAFLQVSQPPDPHRGAKVIRADPQGGRRRHSSETFSSTTTVTPVSPSFAHNSKRHNSASVENVSLRKSSEGSSTLGGGDEPPTSPGQAQPLVAVPPVPQARPWNPGQPGALIGCPGGSSSPMRRETSVGFQNGLNYIAIDVRGEQGSLAQSQPQPGDKNSWSRTRSLGGLLGTVGGSGASGVCGGPGTGALPSASTYASIDFLSHHLKEATVVKE"
